{"source": "patent US6423697B1", "about": "“Intraoral topical anti-inflammatory treatment for relief of migraine, tension-type headache, post-traumatic headache, facial pain, and cervical-muscle spasm” (priority 1999, dated 2002)", "origin": "cited, not measured here", "conditions": "oral administration", "data": [{"compound": "COc1ccc2cc([C@H](C)C(=O)O)ccc2c1", "note": "[Naproxen, 6-methoxy methyl-2-naphtalene acetic acid]", "values": [{"measurement": "time to peak plasma levels", "value": 24, "unit": "h"}]}]}
